Experimental data from PubChem BioAssay AID540256 (National Center for Advancing Translational Sciences (NCATS), 2011).
About 3,700 (1.2%) of roughly 300,000 compounds were called active. The inconclusive results got no clear call from the source; some entries with a clear call stand among them for comparison. Calls come from the whole dose curve; tested in HEK293 cells. A potency beside an inconclusive call is a rough fit, not a confirmed value.
% is set by controls: 0 for no effect and ±100 for the full control effect; potency is the fitted concentration of half-maximal effect.

Experiment: qHTS for Inhibitors of binding or entry into cells for Lassa Virus; note: nearly all actives have a fitted effect of over 50% in size
Details: Lassa virus pseudotype entry inhibition, cell reporter; activity change, negative = inhibition: at 37.9 µM (top of the series) unless noted
For `C/C(CC(=O)Nc1ccc(Cl)c(C(F)(F)F)c1)=N\NC(=O)c1cnccn1`, the Potency was inconclusive: 35.5 µM [inhibitor, single point].
For `Cc1ccc(N/C=C(\C#N)S(=O)(=O)c2ccccc2)cc1`, the Potency was inconclusive: 35.5 µM [inhibitor, single point].
With `COc1ccc(OC)c(NC(=O)Cc2cccs2)c1` the Potency was inconclusive: 1.41 µM [inhibitor, partial curve, poor fit].
In the case of `COc1ccccc1N=c1scc(-c2ccc(S(=O)(=O)N3CCCC3)cc2)n1C`, the Potency is reported as inconclusive: 25.1 µM [inhibitor, partial curve, poor fit].
With `CC(=O)Nc1ccc(Nc2ncnc3c2c(-c2ccccc2)cn3-c2ccc(C)c(Cl)c2)cc1` the Potency was “inactive”.
For `COc1cc(CN2CCC(C(=O)N3CCCC(C)C3)CC2)cc(Br)c1O` (configuration not stated), the Potency was inconclusive: 32.6 µM [activator, partial curve, poor fit].
With `CN1CN(C)c2cccc3cccc1c23` the Potency was “inactive”.
In the case of `CCc1cccc(CC)c1NC(=O)Cn1c(-c2ccccc2Cl)nc2ccccc21`, the Potency is reported as inconclusive: 20.6 µM [activator, partial curve, poor fit].
For `COc1ccc(C(=O)C(CN2CCOCC2)c2ccccc2)cc1` (configuration not stated), the Potency was active: 13 µM.
In the case of `Cc1ccsc1C(=O)OCC(=O)N1CCc2ccccc2C1`, the Potency is reported as “inactive”.
For `CN(CC(=O)Nc1ccc(F)c(F)c1F)C(=O)CCN1C(=O)C2CCCCC2C1=O` (configuration not stated), the Potency was “inactive”.
With `CCOC(=O)[C@@H]1CSCCS(=O)(=O)N1C(=O)[C@@H](NC(=O)OC(C)(C)C)[C@@H](C)CC` the Potency was inconclusive: 0.628 µM [activator, full curve, poor fit].
With `CCCSc1nc2sc3c(c2c(=O)n1-c1cccc(Br)c1)CC(C)(C)OC3` the Potency was inconclusive: 11.2 µM [inhibitor, single point].
In the case of `CCCOc1cccc(C(=O)Nc2ccc(-c3cc4ccccc4oc3=O)c(C)c2)c1`, the Potency is reported as inconclusive: 14.1 µM [inhibitor, single point].
For `COc1ccc2nc(SCC(=O)/C(C#N)=C(\C)N)[nH]c2c1`, the Potency was inconclusive: 22.4 µM [inhibitor, single point].
In the case of `CCOc1ccccc1NC(=O)c1cc2c(=O)n(Cc3cccnc3)ccc2nc1C`, the Potency is reported as “inactive”.
With `O=C(CCCN1C(=O)/C(=C/c2cccs2)SC1=S)NNC(=O)c1ccc(F)cc1` the Potency was inconclusive: 0.355 µM [inhibitor, partial curve, poor fit].
For `CC1CCN(C(=O)/C(=C\c2cccs2)NC(=O)c2ccccc2)CC1`, the Potency was inconclusive: 1.26 µM [inhibitor, single point].
With `Cc1c(NC(=O)c2ccc(Br)o2)cccc1-c1nc2ccccc2o1` the Potency was “inactive”.
For `COC(=O)c1ccc(-c2nc3ccc(C)cc3o2)cc1`, the Potency was inconclusive: 5.8 µM [inhibitor, full curve].
With `Cc1cccc(C)c1NC(=O)CCS(=O)(=O)c1cccc2nonc12` the Potency was “inactive”.
For `CCCn1nnc2sc3c(c2c1=O)CCC(C)C3` (configuration not stated), the Potency was inconclusive: 7.08 µM [activator, partial curve, poor fit].
In the case of `Clc1ccccc1Nc1ncnc2c1nc1n2CCCCC1`, the activity change, negative = inhibition is reported as inconclusive: 15.1% [activator] [at 46.1 µM].
In the case of `O=C(Nc1ccc2nc(SCCOc3ccccc3)sc2c1)c1ccc2c(c1)OCO2`, the Potency is reported as “inactive”.
With `O=C(NNc1nc(N2CCCC2)nc(N2CCCC2)n1)c1ccccc1` the Potency was “inactive”.
With `O=C(NCCc1ccncc1)Nc1cccc(Cl)c1` the Potency was “inactive”.
For `Cc1ccccc1-c1ocnc1C(=O)Nc1ccccc1NC(=O)c1ccccn1`, the Potency was inconclusive: 0.501 µM [inhibitor, full curve, poor fit].
In the case of `Cc1ccc2oc(-c3ccc(C)c(NC(=O)Cc4cccs4)c3)nc2c1`, the Potency is reported as “inactive”.
With `Cc1cc(Nc2ccc(C)c(Cl)c2)nc(N2CCOCC2)n1` the Potency was inconclusive: 3.55 µM [inhibitor, partial curve, poor fit].
In the case of `COc1ccc(C2C(C(=O)Nc3ccccc3)=C(C)Nc3nc(-c4ccccc4Cl)nn32)cc1OC` (configuration not stated), the Potency is reported as inconclusive: 35.5 µM [inhibitor, single point].
For `Cc1nn(Cc2c(F)c(F)c(F)c(F)c2F)c(C)c1NC(=O)c1c(-c2ccccc2)nn(-c2ccccc2)c1C`, the Potency was inconclusive: 6.51 µM [inhibitor, full curve, poor fit].
In the case of `O=C(CCC(=O)c1ccc(F)cc1)Nc1ccccc1Cl`, the Potency is reported as “inactive”.
For `Cc1noc(C)c1C(=O)Nc1nc(-c2cc(F)ccc2F)cs1`, the Potency was inconclusive: 25.1 µM [activator, partial curve, poor fit].
With `CCCOc1cccc(C2c3c(oc4ccc(F)cc4c3=O)C(=O)N2Cc2ccc3c(c2)OCO3)c1` (configuration not stated) the Potency was “inactive”.
In the case of `COc1ccc(CC(=O)NCc2ccc3c(c2)CCN3C(=O)c2cccc(C)c2)cc1`, the Potency is reported as inconclusive: 3.16 µM [inhibitor, partial curve, poor fit].
In the case of `CCCCNC(=O)CC1S/C(=N/N=C/c2ccc(OC)cc2)NC1=O` (configuration not stated), the Potency is reported as inconclusive: 10 µM [inhibitor, partial curve, poor fit].
With `O=C(CCC(=O)c1cccs1)NNC(=O)c1cc(Cl)ccc1Cl` the Potency was inconclusive: 3.16 µM [inhibitor, single point].
For `Cc1cc(C(=O)N/N=C/c2ccc(C)o2)c2ccccc2n1`, the Potency was inconclusive: 0.447 µM [inhibitor, full curve, poor fit].
For `CC(=O)Nc1cc2c(c([N+](=O)[O-])c1C)C(C)(C)CC2(C)C`, the Potency was “inactive”.
With `O=c1[nH]c(CSc2nc3ccccc3[nH]2)nc2c1cnn2-c1ccccc1` the Potency was inconclusive: 35.5 µM [inhibitor, single point].
In the case of `Cn1nc(-c2ccc(N3CCOCC3)c(NS(=O)(=O)c3ccc(Cl)cc3)c2)c2ccccc2c1=O`, the Potency is reported as inconclusive: 11.2 µM [inhibitor, partial curve, poor fit].
For `CN1CCN(c2ccc(NC(=O)COc3ccc(Cl)cc3Cl)cc2)CC1`, the Potency was inconclusive: 5.17 µM [activator, single point].
With `Cc1ccc(Cc2ccccc2C(=O)O)cc1` the Potency was “inactive”.
With `N#Cc1ccc(-c2ccc(F)cc2)nc1Oc1ccc(Cl)c(Cl)c1` the Potency was inconclusive: 3.26 µM [inhibitor, full curve].
With `CCC(C)(C)NC(=O)CN(Cc1ccc(OC)cc1)C(=O)CCC(=O)Nc1nccs1` the Potency was inconclusive: 12.6 µM [inhibitor, partial curve, poor fit].
With `O=C(Cc1cccs1)NCc1ccc(Cl)cc1` the Potency was “inactive”.
With `Cc1nc2ccn(Cc3cccs3)c(=O)c2cc1C(=O)N1CCN(c2ccccc2)CC1` the Potency was inconclusive: 11.2 µM [activator, partial curve, poor fit].
With `CC(C)(C)OC(=O)N[C@@H](Cc1ccccc1)c1nnc(S(=O)(=O)Cc2cccc(F)c2)o1` the Potency was inconclusive: 10 µM [inhibitor, partial curve].
With `O=C(CSc1cn(CC(=O)N2CCCC2)c2ccccc12)Nc1ccccc1C(F)(F)F` the Potency was “inactive”.
In the case of `Cc1cccc(Cn2c(=O)n(CC3CCC(C(=O)N4CCC(C)CC4)CC3)c(=O)c3sccc32)c1` (configuration not stated), the Potency is reported as inconclusive: 3.98 µM [activator, single point].
For `Cc1cc(C)c(C)c(OCC(=O)O/N=C(\N)c2ccccn2)c1`, the Potency was inconclusive: 35.5 µM [inhibitor, single point].
In the case of `CCOC(=O)C1=C(C)NC(=O)NC1/C=C/c1ccccc1OC` (configuration not stated), the Potency is reported as inconclusive: 5.62 µM [inhibitor, partial curve, poor fit].
With `COc1cc2[nH]c(=O)n(CCCCCC(=O)N3CCN(c4ccc(Cl)cc4)CC3)c(=O)c2cc1OC` the Potency was “inactive”.
For `CCCc1nn(C)c(C(=O)Nc2ccc3ccccc3c2)c1Cl`, the Potency was “inactive”.
In the case of `COc1ccc2[nH]c(=O)c(CN(CCCN(C)C)C(=O)Nc3ccc(F)cc3)cc2c1`, the Potency is reported as “inactive”.
With `COc1cc2c(cc1OC)CN(C(=O)c1ccc3nc[nH]c3c1)CC2` the Potency was inconclusive: 3.66 µM [inhibitor, full curve].
For `CCCN1CCN(C(=O)CN2C(=O)CC(C)(C)S(=O)(=O)c3ccccc32)CC1`, the Potency was inconclusive: 5.17 µM [inhibitor, full curve, poor fit].
For `COc1ccccc1NC(=O)Nc1nc(C(C)(C)C)cs1`, the Potency was inconclusive: 35.5 µM [inhibitor, single point].
With `Cc1ccccc1NC(=S)N(Cc1ccccn1)Cc1ccccc1Cl` the Potency was inconclusive: 35.5 µM [inhibitor, single point].
With `COc1ccc(CNC(=O)c2nc(S(=O)(=O)Cc3ccccc3)ncc2Cl)cc1` the Potency was inconclusive: 35.5 µM [inhibitor, single point].
With `CCN(CC)S(=O)(=O)c1ccc2c(c1)c(=O)c(C(=O)NCc1ccc3c(c1)OCO3)cn2C` the Potency was “inactive”.
With `CCN(CC)S(=O)(=O)c1cccc(C(=O)NC(Cc2c[nH]c3ccccc23)c2nnc3n2CCC3)c1` (configuration not stated) the Potency was inconclusive: 28.2 µM [inhibitor, partial curve, poor fit].
With `COc1ccccc1N(C)S(=O)(=O)c1ccc(C(=O)Nc2cccc(Br)c2)cc1` the Potency was inconclusive: 10 µM [inhibitor, partial curve].
In the case of `Oc1c(C=Nc2ccccc2)sc2ccccc12`, the Potency is reported as inconclusive: 17.8 µM [inhibitor, single point].
In the case of `CSc1nc(Cl)c(Br)c(Nc2c[nH]c(=O)[nH]c2=O)n1`, the Potency is reported as inconclusive: 14.1 µM [activator, partial curve, poor fit].
In the case of `COc1ccc([N+](=O)[O-])cc1NC(=O)Cc1ccc(Cl)cc1`, the Potency is reported as “inactive”.
For `COc1ccc2[nH]c(=O)c(CN(C(=O)c3cccnc3)c3ccc(C)cc3C)cc2c1`, the Potency was inconclusive: 8.91 µM [inhibitor, partial curve, poor fit].
